These are yes or no findings as the source states them, for the method shown. Some binding calls cover weakened binding; strength is not graded here.

The target of test [1] is cynomolgus TrkB receptor (cynomolgus). As to the kind of experiment: method not detailed.
Test [2] shares this target. In words: recombinant TrkB in heterologous cell line, primary cells or human iPSC derived cells; binding method not detailed.

B1: Humanised 1G11 (antibody, human IgG1, kappa, V domains shown)
VH: QVQLVQSGAEVKKPGSSVKVSCKASGYTFTSYYINWVRQAPGQGLESMGRIAPGNTYYNEIFKGRVTITADKSTSTAYMELSSLRSEDTAVYYCARRGYEGALDYWGQGTLVTVSS
VL: EIVLTQSPATLSLSPGERATLSCRASQRISNNLHWYQQKPGQAPRLLIKYVSQSISGIPARFSGSGSGTDFTLTISSLEPEDFAVYYCQQSNSWPLTFGQGTKLEIKR
Take B1: the binding entry in test [1] was “binds”.

B2: 1G11 (antibody, V domains shown)
VH: QVQLQQSGDDLVKPGASVKLSCKASGYTFTSYYINWIKQRPGQGLECIGRIAPGNTYYNEIFKGKAILTVDTSSSTAYIQLSSLSSEDSGVYFCARRGYEGALDYWGQGTSVTVSS
VL: DIVLTQSPATLSVTPGDSVSLSCRASQRISNNLHWYQQKSHESPRLLIKYVSQSISGIPSRFSGSGSGTDFTLSINSVETEDFGMYFCQQSNSWPLTFGAGTKLELKR
With B2, in test [2], the binding result is “binds”.

The record behind these values is patent US20200165345A1.
